The structures appear in SMILES notation. The list shows a part of the results. The data scatter; read single values as rough.

This assay concerns Plasmodium vivax liver stage (primary human hepatocyte culture). As to the kind of experiment: schizont net growth area inhibition (% inhibition); higher = more active against liver schizonts. The conditions noted are these: 10 µM; assay mode: Radical Cure (treated from day 5 post-infection for 3 days), fixed day 8 post-infection.
In the case of `O=C(Nc1ccc(-c2nc3cc(NC(=O)c4ccc(Cl)cc4)ccc3[nH]2)cc1)c1ccc(Cl)cc1`, the “schizont net growth area inhibition” value worked out at 37.1.

As for `COc1cccc(NC(=O)Cn2c(C)c(C#N)c3ccccc32)c1`, the “schizont net growth area inhibition” value amounted to 24.

In the case of `CCCc1c(C)nc2ccc(Br)cc2c1O`, the “schizont net growth area inhibition” value was -12.4.

As to `O=C(Nc1ccc(F)c(-c2nc3cc(-c4ccccc4)cnc3[nH]2)c1)N1CCCC1`, the “schizont net growth area inhibition” value turned out to be 11.3.

Consider `O=C(CN1CCOCC1)Nc1ccc2ncnc(Nc3ccc(OCc4cccc(F)c4)c(Cl)c3)c2c1`, for which the “schizont net growth area inhibition” value is -78.2.

As for `Cc1ccc2cc(C3NC(=O)c4ccccc4N3)c(Cl)nc2c1` (stereo not drawn), the “schizont net growth area inhibition” value is -44.9.

On to `CCc1cc(=O)n(C)c(SC(C)C(=O)Nc2ccc(F)cc2)n1` (stereo not drawn), for which the “schizont net growth area inhibition” value amounted to 63.5.

`CCCCOC(=O)Nc1cc2nc(C3CCCCC3)[nH]c2cc1N1CCCC1`: the “schizont net growth area inhibition” value is -4.7.

Regarding `CC(C)(C)CN1C(=O)C(c2ccccc2)(c2ccccc2)N=C1N`, the “schizont net growth area inhibition” value was -9.

For `CNC(=O)C1Cc2c([nH]c3cc(Cl)ccc23)C2(CCN(CCc3ccccc3)CC2)N1` (stereo not drawn), the “schizont net growth area inhibition” value is -41.

Regarding `CCCCOC(=O)c1ccc(Nc2cc(C)nc3ccc(OC)cc23)cc1`, the “schizont net growth area inhibition” value is -80.9.

With `COc1cccc(-n2nnnc2S(=O)(=O)Cc2ccccc2)c1`, the “schizont net growth area inhibition” value is -49.1.

On to `COc1ccc(-c2cnc3cnc(-c4cccc(OC(C)C)c4)cn23)cc1`, for which the “schizont net growth area inhibition” value amounted to 20.7.

Take `Cc1nc(-c2ccccn2)nc(NCCc2ccc(S(C)(=O)=O)cc2)c1Cl`: the “schizont net growth area inhibition” value turned out to be 59.9.

As for `Cc1ccc(Nc2nc(NCCO)c3ccccc3n2)cc1C`, the “schizont net growth area inhibition” value was found to be 61.1.

For `CCc1c(C)c(=N)c2ccccc2n1C`, the “schizont net growth area inhibition” value was 18.2.

With `COc1nc(Nc2ccc(C(C)C)cc2)nc(OC)n1`, the “schizont net growth area inhibition” value was -1.9.

Regarding `C[C@H](C(N)=O)N1CCCC[C@@H]1c1ccc(OCc2cccc(F)c2)cc1`, the “schizont net growth area inhibition” value was -18.9.
